US11655268B2, “Nucleoside or nucleotide derivatives, and uses thereof” (ST Pharm Co., Ltd., priority 2018, dated 2023)

Assays:
[1] = system: hCoV (229E); assay type: cell-based, Human coronavirus hCoV 229E; conditions: CC50/EC50
[2] = system: FIPV; assay: Cytopathic effect reduction, FIPV in CRFK cells, MTT; assay type: cell-based, feline infectious peritonitis virus (FIPV); conditions: CC50/EC50

Row | Structure (SMILES) | SI hCoV (229E) [1] | SI FIPV [2]
1 | O=C(Nc1ccn([C@@H]2O[C@H](CO)[C@@H](O)C2(F)F)c(=O)n1)c1cccnc1 [Example 1, N-(1-((2R,4R,5R)-3,3-difluoro-4-hydroxy-5-(hydroxymethyl)tetrahydrofuran-2-yl)-2-oxo-1,2-dihydropyrimidin-4-yl)nicotinamide] | >21.74 | 2.24
2 | O=C(Nc1ccn([C@@H]2O[C@H](CO)[C@@H](O)C2(F)F)c(=O)n1)c1ccccn1 [Example 2, N-(1-((2R,4R,5R)-3,3-difluoro-4-hydroxy-5-(hydroxymethyl)tetrahydrofuran-2-yl)-2-oxo-1,2-dihydropyrimidin-4-yl)picolinamide] | >125.0 | >10.99
3 | O=C(Nc1ccn([C@@H]2O[C@H](CO)[C@@H](O)C2(F)F)c(=O)n1)c1ccc(F)cn1 [Example 9, N-(1-((2R,4R,5R)-3,3-difluoro-4-hydroxy-5-(hydroxymethyl)tetrahydrofuran-2-yl)-2-oxo-1,2-dihydropyrimidin-4-yl)-5-fluoropicolinamide] | >41.67 | >5.56
4 | Cc1ccc(C(=O)Nc2ccn([C@@H]3O[C@H](CO)[C@@H](O)C3(F)F)c(=O)n2)nc1 [Example 10, N-(1-((2R,4R,5R)-3,3-difluoro-4-hydroxy-5-(hydroxymethyl)tetrahydrofuran-2-yl)-2-oxo-1,2-dihydropyrimidin-4-yl)-5-methylpicolinamide] | >13.51 | 4.38
5 | Cc1cccnc1C(=O)Nc1ccn([C@@H]2O[C@H](CO)[C@@H](O)C2(F)F)c(=O)n1 [Example 12, N-(1-((2R,4R,5R)-3,3-difluoro-4-hydroxy-5-(hydroxymethyl)tetrahydrofuran-2-yl)-2-oxo-1,2-dihydropyrimidin-4-yl)-3-methylpicolinamide] | >8.20 | –
6 | Cc1cccc(C(=O)Nc2ccn([C@@H]3O[C@H](CO)[C@@H](O)C3(F)F)c(=O)n2)n1 [Example 13, N-(1-((2R,4R,5R)-3,3-difluoro-4-hydroxy-5-(hydroxymethyl)tetrahydrofuran-2-yl)-2-oxo-1,2-dihydropyrimidin-4-yl)-6-methylpicolinamide] | >17.24 | –
